Reference: the supplement of paper PMC10735217
Structures can show the parent of a compound that is named as a salt. The list shows a part of the results. This data set is noisy: repeats of one test often differ as much as different tests do.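 Human kidney-derived cells stably carry a construct in which eight TEAD-binding elements drive luciferase, measured by luminescence in a drug-repurposing library screen. A hit is any compound whose signal exceeds the plate mean by more than five robust Z scores.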

System: HEK293A TEAD-LUC reporter
Assay: TEAD-luciferase reporter activity (YAP activation), robust Z score vs plate; higher = stronger YAP/TEAD activation
Conditions: 24 h

SMILES	TEAD-luciferase reporter activity (compound concentration: 200 nM)	TEAD-luciferase reporter activity (compound concentration: 2 uM)	TEAD-luciferase reporter activity (compound concentration: 10 uM)
Cc1oc(-c2ccc(C(F)(F)F)cc2)nc1COc1ccc(S(=O)(=O)N2c3ccccc3C[C@@H]2C(=O)O)cc1	inactive: 1.74	inactive: -1.21	inactive: 0.975
CCCC(=O)O[C@]1(C(=O)COC(C)=O)CC[C@H]2[C@@H]3C[C@H](C)C4=CC(=O)CC[C@]4(C)[C@H]3[C@@H](O)C[C@@]21C [Amebucort]	inactive: -0.509	inactive: 0.787	inactive: 0.0315
COc1cc2ncnc(-n3nc(-c4ccccn4)nc3N)c2cc1OC	inactive: 1.1	inactive: -0.512	inactive: 3.37
O=C(c1ccccc1)N1CCC(N2CCCCCC2=O)CC1	inactive: -1.43		inactive: 2.79
Cn1c(=O)c2c(ncn2CC(=O)O)n(C)c1=O	inactive: 0.356	inactive: 0.713	inactive: -1.39
O=C1c2ccccc2C(=O)C1c1ccc(C(F)(F)F)cc1	inactive: -0.178	inactive: -0.27	inactive: 1.92
COc1ccc(C(=O)N2CCC(N3CCCCCC3=O)CC2)cc1	inactive: -1.21		inactive: -0.712
OCCN1CCN(C2CC(c3ccc(F)cc3)c3ccc(C(F)(F)F)cc32)CC1 (stereo not drawn) [Tefludazine]	inactive: 0.277	inactive: -0.935	inactive: 1.12
CC(C)(C)C(=O)OCC(=O)C1CCC2C3CCC4=CC(=O)CCC4(C)C3CCC12C (stereo not drawn)	inactive: 0.0934	inactive: 0.383	inactive: 0.512
CC(CCC(=O)O)(c1ccc(OCc2ccc3ccccc3n2)cc1)c1ccc(OCc2ccc3ccccc3n2)cc1	inactive: -0.585	inactive: -1.17	inactive: 0.74
CN1CCN(CC/C=C2/c3ccccc3Sc3ccc(S(=O)(=O)N(C)C)cc32)CC1 [Tiotixene]	inactive: 0.148	inactive: -1.31	active: 5.6
CC(C)NCC(O)COc1cccc2c1C=CC2 (stereo not drawn) [Indenolol]	inactive: -0.188	inactive: -0.474	inactive: 1.7
CCC(C(=O)OCCOCCN(CC)CC)c1ccccc1 (stereo not drawn) [butamirate citrate]	inactive: -0.263	inactive: -0.478	inactive: 0.679
COc1cc(/C=C/C(=O)OCCCCO[N+](=O)[O-])ccc1OC(=O)C(C)c1ccc(-c2ccccc2)c(F)c1 (stereo not drawn)	inactive: 2.49	inactive: -1.7	inactive: 0.168
Cc1ccc(NC(=O)C(C)NC(=O)C(C)(C)C)c(C)c1 (stereo not drawn)	inactive: -0.96	inactive: -1.09	inactive: -0.0891

Among those listed so far, these have sulfur:
SMILES	TEAD-luciferase reporter activity (compound concentration: 200 nM)	TEAD-luciferase reporter activity (compound concentration: 2 uM)	TEAD-luciferase reporter activity (compound concentration: 10 uM)
Cc1oc(-c2ccc(C(F)(F)F)cc2)nc1COc1ccc(S(=O)(=O)N2c3ccccc3C[C@@H]2C(=O)O)cc1	inactive: 1.74	inactive: -1.21	inactive: 0.975
CN1CCN(CC/C=C2/c3ccccc3Sc3ccc(S(=O)(=O)N(C)C)cc32)CC1 [Tiotixene]	inactive: 0.148	inactive: -1.31	active: 5.6
